According to patent US20090285836A1 (NEREUS PHARMACEUTICALS, INC., priority 2008, published 2009):
At least one structure is not confirmed: it was looked up by name or label, or the drawing left a doubt.

Legend:
[1] = test system: DU-145 cells; assay: cell morphological changes, DU-145; format: cell-based, human; conditions: DU-145, 24 h, increasing concentrations (FIG. 17A)
[2] = test system: phospho-IkBα; assay: Western blot for phosphorylated and total IkBα; format: cell-based, human
[3] = test system: DU-145 cells; assay: sensitization to CDDP or vincristine apoptosis; format: cell-based, human; conditions: increasing concentrations with CDDP or vincristine (FIG. 3)
[4] = test system: anti-apoptotic gene products (Survivin, Bcl-xL, XIAP, CIAPI, Bax); assay: Western blots of anti-apoptotic gene products; format: cell-based; conditions: PC-3 and Ramos cells, 2.5 nM (FIG. 4)
[5] = test system: RKIP; assay: RKIP expression (RT-PCR, Western blot)
[6] = test system: DR5; assay: DR5 transcription and expression (luciferase reporter, Western blot, RT-PCR); format: cell-based; conditions: PC-3 and Ramos cells, 1-5 nM (FIG. 7)
[7] = test system: YY1; assay: YY1 promoter luciferase reporter and YY1 expression; format: cell-based
From the text: TRAIL is produced by immune cells, and is a ligand for death receptors DR4, DR5, DcR1, and DcR2. […] Controls included untransfected (UNT) and DMSO. […] RKIP may have a direct role in the NPI-0052-induced sensitization to TRAIL. […] RKIP overexpression results in DR5 upregulation and cell sensitization to TRAIL-mediated apoptosis. YY1 acts as a suppressor of DR5 transcription and is positively regulated by NF-κB. […] Transfection controls include medium only and siRNA negative control. YY1 has a direct role in tumor sensitization to TRAIL apoptosis. […] Controls include transfected with the YY1-lucificerase reporter construct only, and cells treated with 10 μg/ml DHMEQ only. […] CMV-RKIP inhibited both mRNA transcription and protein expression of YY1. YY1 is inhibited by RKIP overexpression via NF-κB down-regulation.

[8] = test system: NF-κB promoter activity; assay: NF-κB-luciferase reporter system; format: cell-based, human
[9] = test system: PC-3 and Ramos cells; assay: sensitization to TRAIL-mediated apoptosis; format: cell-based; conditions: 5 or 10 ng/ml TRAIL (FIG. 6)
[10] = test system: DU-145 cells; assay: in vitro Matrigel cell invasion assay; format: cell-based, human; conditions: DU-145, 50 nM, 22 h (FIG. 18B)
Description: (§1) The functional significance of the NPI-0052-induced changes in the expression profiles of the above metastasis-related gene products was expected to be reflected in the migratory and invasive cell properties.
(§2) In vitro cell invasion and migration assays were performed using the 24/well BD Biocoat 3 micron migration chambers or 8 micron Matrigel invasion chambers (Becton Dickinson Labware, Bedford, Mass.), respectively, according to manufacturer's instructions. For both assays, cells were starved for 4-5 h prior to setting up the assay by adding basal medium supplemented with 0.1% BSA. RPMI 1640 medium containing 10% serum was used as chemoatractant. […] Data were expressed as the fold cell migration derived from the mean RFU of cell migration through the membrane towards FBS divided by the mean RFU of cell migration in the absence of FBS. […] Invaded cells through Matrigel were counted under the microscope at 40× magnification. Data were expressed as the percent invasion through the Matrigel Matrix and membrane relative to the migration through the control insert membrane.
(§3) For migratory assays, 10^5 cells were seeded in the upper chamber, while in the lower chamber RPMI 1640 containing 10% FBS was added. […] Only labeled cells that had migrated through the pores of the membrane were detected. […]

[11] = test system: normal human fibroblasts (CCD-27sk); conditions: CCD-27sk normal fibroblasts, 48 hours; cited from earlier work
[12] = test system: Jurkat cells; conditions: at the approximate EC50; cited from earlier work
[13] = test system: Snail; assay: Snail expression (RT-PCR, Western blot)
[14] = test system: DU-145 cells; assay: in vitro cell migration assay; format: cell-based, human; conditions: DU-145, 50 nM, 22 h (FIG. 18A)
Description: as §1, §2, §3

[15] = test system: E-cadherin, cytokeratin 18, fibronectin, vimentin; assay: Western blot and immunofluoresence of epithelial and mesenchymal gene markers; format: cell-based, human
[16] = test system: LNCaP cells; assay: cell morphological changes, LNCaP; format: cell-based, human; conditions: 24 h, same concentrations (FIG. 17A)
[17] = test system: National Cancer Institute's 60-cell-line panel; conditions: read-out: mean GI50 (concentration required to achieve 50% growth inhibition); 60-cell-line panel mean; cited from earlier work

C[C@@]12OC(=O)[C@]1([C@@H](O)[C@@H]1C=CCCC1)NC(=O)[C@@H]2CCCl [NPI-0052, Salinosporamide A]
cell morphology [1]: acquired a more epithelial-like phenotype
phospho-IkBα protein ([2]; DU-145 cells, 50 nM, time course (FIG. 16C)): induced time-dependent accumulation
pIkbα level ([2]; PC-3 and Ramos cells (FIG. 2B)): accumulates
sensitization to CDDP and vincristine-mediated apoptosis [3]: sensitizes tumor cells to CDDP and vincristine-mediated apoptosis
expression of anti-apoptotic gene products [4]: modulates expression anti-apoptotic gene products involved in chemoresistance
RKIP mRNA expression ([5]; DU-145, 50 nM, 30 min to 12 h, RT-PCR (FIG. 19A)): constant increase
RKIP protein levels ([5]; DU-145, 50 nM, starting as early as 4 h, Western blot (FIG. 19B)): time-dependent significant increase
RKIP protein levels ([5]; LNCaP, 50 nM, 4 h post-treatment (FIG. 21B)): increase of RKIP protein levels
RKIP expression ([5]; PC-3 and Ramos 2.5 nM, DU145 and LNCaP 50 nM, Western blot (FIG. 5)): induced
DR5 transcription and expression [6]: upregulates DR5 transcription and expression
YY1 gene expression ([7]; PC-3 and Ramos cells, 2.5 nM (FIG. 11B)): reduces expression of the YY1 gene
YY1 promoter luciferase activity ([7]; pYY1-luciferase reporter (FIG. 11A)): inhibits expression from the YY1 promoter
NF-κB promoter activity ([8]; DU-145 cells, increasing concentrations (FIG. 16B)): inhibited proportionally the NF-κB promoter activity
luciferase expression from NF-κB reporter construct ([8]; PC-3, Ramos and DU-145 cells (FIG. 2A)): inhibits expression of luciferase
sensitization to TRAIL-mediated apoptosis [9]: sensitizes tumor cells to TRAIL-mediated apoptosis
tumor cell invasive properties [10]: suppressed significantly
EC50 [11]: 196 nM
Caspase-3 activation and cleavage of PARP [12]: resulted in Caspase-3 activation and cleavage of PARP
Snail transcription ([13]; DU-145, 50 nM, as early as 1 h, lowest level at 4 h (FIG. 20A)): potent decrease
Snail protein levels ([13]; DU-145, 50 nM, ≧4 h post-treatment (FIG. 20B)): significantly reduced
Snail level ([13]; LNCaP, 50 nM, 4 and 12 h post-treatment, re-appeared at 24 h (FIG. 21B)): completely undetectable
Snail expression ([13]; metastatic and non-metastatic prostate cells, 2.5 or 50 nM (FIG. 14A)): downregulates Snail expression
tumor cell migratory properties [14]: suppressed significantly
expression of epithelial and mesenchymal markers ([15]; DU145 and LNCaP cells, Western blot (FIG. 15A)): induced the expression of epithelial markers and inhibited mesenchymal markers
E-cadherin expression ([15]; DU-145 cells, 50 nM, 4 h): significantly induced
cytokeratin 18 expression ([15]; DU-145 cells, 50 nM, 4 h): significantly induced
fibronectin levels ([15]; DU-145 cells, 50 nM, 4 h): downregulated
vimentin expression ([15]; DU-145 cells, 50 nM, 4 h): blocked almost completely
fibronectin level ([15]; LNCaP cells, 50 nM, 4 h): remained unchanged
cell morphology [16]: maintained the epithelial phenotype without any significant change
GI50 [17]: < 10 nM
